Measurements: PMC2816667
The exact form of at least one protein or probe is not confirmed.

Key:
[1] = tested on: GST-EWS-Oct-4 (human); assay: EMSA; settings: 10 mM Tris-HCl pH 8.0, 40 mM KCl, 6% glycerol, 1 mM DTT, 0.05% NP-40, 10 ng/ul poly(dI-dC), 30 min at 4 C; 4% PAGE in 0.5x TBE at 4 C; protein 0.15-1.35 ug; recombinant protein; protein details: GST; label: 32P 5' end label
[2] = tested on: GST-EWS-Oct-4B (human); assay: EMSA; settings: 10 mM Tris-HCl pH 8.0, 40 mM KCl, 6% glycerol, 1 mM DTT, 0.05% NP-40, 10 ng/ul poly(dI-dC), 30 min at 4 C; 4% PAGE in 0.5x TBE at 4 C; protein 0.15-1.35 ug; recombinant protein; protein details: GST; label: 32P 5' end label

“GGCACTTCACTAGCATAACAATGAGGGCTC (double strand) [Oct-4 probe]”: binds [1]; binds [2].
